Consider 40 substances from paper PMC11427100.

Sequences of proteins named here, by UniProt entry; tags and fusion partners are left off. A change or cut given only in a name is not applied to a line headed by its entry. Residues count along the entry.
UniProt Q6R891: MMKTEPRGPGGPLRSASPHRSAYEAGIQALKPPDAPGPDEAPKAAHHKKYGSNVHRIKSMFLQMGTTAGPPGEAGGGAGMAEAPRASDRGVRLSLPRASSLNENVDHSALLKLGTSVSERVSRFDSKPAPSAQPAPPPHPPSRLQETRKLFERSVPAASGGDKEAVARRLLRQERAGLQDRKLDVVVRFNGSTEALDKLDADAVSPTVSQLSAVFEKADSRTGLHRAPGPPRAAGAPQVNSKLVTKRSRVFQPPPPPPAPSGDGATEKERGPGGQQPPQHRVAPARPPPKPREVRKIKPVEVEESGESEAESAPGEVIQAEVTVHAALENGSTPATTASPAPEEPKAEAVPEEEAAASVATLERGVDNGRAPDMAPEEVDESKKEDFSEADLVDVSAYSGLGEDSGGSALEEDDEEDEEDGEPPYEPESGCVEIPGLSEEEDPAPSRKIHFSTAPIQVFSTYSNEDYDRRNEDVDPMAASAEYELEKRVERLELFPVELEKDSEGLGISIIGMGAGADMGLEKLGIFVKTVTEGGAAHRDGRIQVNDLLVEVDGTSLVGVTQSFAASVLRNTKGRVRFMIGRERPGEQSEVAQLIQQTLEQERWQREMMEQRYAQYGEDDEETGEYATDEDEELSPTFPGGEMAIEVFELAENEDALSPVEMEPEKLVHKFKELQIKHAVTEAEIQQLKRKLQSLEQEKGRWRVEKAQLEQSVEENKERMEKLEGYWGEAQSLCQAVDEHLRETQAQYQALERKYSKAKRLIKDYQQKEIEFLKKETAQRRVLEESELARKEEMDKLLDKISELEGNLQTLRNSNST
UniProt P99027: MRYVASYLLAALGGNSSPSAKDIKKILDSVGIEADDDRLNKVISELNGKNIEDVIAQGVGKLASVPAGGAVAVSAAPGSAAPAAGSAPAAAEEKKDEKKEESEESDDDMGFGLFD
UniProt Q504N0: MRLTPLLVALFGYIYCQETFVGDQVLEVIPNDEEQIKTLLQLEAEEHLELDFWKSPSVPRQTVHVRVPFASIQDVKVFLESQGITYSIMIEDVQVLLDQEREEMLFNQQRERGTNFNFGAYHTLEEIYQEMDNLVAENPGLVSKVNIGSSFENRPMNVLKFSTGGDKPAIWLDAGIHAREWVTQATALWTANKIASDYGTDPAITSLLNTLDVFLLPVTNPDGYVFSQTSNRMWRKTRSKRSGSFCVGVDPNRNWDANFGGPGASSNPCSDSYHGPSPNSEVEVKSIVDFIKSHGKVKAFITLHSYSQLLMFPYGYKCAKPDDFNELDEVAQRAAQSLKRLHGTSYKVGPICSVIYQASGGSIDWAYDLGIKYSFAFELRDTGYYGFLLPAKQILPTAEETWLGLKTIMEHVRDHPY
UniProt Q9CR35, residues 19-263: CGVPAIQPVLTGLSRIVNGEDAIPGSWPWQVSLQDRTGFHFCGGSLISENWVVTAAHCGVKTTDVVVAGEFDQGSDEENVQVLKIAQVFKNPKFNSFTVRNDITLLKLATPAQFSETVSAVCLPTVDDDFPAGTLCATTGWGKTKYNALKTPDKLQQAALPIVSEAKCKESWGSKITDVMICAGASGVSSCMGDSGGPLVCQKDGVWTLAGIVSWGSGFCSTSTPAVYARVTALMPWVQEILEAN
UniProt Q9CQC2: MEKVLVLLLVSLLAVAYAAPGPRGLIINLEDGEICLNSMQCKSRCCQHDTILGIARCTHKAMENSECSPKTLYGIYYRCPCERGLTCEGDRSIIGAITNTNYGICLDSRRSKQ
UniProt Q80X90: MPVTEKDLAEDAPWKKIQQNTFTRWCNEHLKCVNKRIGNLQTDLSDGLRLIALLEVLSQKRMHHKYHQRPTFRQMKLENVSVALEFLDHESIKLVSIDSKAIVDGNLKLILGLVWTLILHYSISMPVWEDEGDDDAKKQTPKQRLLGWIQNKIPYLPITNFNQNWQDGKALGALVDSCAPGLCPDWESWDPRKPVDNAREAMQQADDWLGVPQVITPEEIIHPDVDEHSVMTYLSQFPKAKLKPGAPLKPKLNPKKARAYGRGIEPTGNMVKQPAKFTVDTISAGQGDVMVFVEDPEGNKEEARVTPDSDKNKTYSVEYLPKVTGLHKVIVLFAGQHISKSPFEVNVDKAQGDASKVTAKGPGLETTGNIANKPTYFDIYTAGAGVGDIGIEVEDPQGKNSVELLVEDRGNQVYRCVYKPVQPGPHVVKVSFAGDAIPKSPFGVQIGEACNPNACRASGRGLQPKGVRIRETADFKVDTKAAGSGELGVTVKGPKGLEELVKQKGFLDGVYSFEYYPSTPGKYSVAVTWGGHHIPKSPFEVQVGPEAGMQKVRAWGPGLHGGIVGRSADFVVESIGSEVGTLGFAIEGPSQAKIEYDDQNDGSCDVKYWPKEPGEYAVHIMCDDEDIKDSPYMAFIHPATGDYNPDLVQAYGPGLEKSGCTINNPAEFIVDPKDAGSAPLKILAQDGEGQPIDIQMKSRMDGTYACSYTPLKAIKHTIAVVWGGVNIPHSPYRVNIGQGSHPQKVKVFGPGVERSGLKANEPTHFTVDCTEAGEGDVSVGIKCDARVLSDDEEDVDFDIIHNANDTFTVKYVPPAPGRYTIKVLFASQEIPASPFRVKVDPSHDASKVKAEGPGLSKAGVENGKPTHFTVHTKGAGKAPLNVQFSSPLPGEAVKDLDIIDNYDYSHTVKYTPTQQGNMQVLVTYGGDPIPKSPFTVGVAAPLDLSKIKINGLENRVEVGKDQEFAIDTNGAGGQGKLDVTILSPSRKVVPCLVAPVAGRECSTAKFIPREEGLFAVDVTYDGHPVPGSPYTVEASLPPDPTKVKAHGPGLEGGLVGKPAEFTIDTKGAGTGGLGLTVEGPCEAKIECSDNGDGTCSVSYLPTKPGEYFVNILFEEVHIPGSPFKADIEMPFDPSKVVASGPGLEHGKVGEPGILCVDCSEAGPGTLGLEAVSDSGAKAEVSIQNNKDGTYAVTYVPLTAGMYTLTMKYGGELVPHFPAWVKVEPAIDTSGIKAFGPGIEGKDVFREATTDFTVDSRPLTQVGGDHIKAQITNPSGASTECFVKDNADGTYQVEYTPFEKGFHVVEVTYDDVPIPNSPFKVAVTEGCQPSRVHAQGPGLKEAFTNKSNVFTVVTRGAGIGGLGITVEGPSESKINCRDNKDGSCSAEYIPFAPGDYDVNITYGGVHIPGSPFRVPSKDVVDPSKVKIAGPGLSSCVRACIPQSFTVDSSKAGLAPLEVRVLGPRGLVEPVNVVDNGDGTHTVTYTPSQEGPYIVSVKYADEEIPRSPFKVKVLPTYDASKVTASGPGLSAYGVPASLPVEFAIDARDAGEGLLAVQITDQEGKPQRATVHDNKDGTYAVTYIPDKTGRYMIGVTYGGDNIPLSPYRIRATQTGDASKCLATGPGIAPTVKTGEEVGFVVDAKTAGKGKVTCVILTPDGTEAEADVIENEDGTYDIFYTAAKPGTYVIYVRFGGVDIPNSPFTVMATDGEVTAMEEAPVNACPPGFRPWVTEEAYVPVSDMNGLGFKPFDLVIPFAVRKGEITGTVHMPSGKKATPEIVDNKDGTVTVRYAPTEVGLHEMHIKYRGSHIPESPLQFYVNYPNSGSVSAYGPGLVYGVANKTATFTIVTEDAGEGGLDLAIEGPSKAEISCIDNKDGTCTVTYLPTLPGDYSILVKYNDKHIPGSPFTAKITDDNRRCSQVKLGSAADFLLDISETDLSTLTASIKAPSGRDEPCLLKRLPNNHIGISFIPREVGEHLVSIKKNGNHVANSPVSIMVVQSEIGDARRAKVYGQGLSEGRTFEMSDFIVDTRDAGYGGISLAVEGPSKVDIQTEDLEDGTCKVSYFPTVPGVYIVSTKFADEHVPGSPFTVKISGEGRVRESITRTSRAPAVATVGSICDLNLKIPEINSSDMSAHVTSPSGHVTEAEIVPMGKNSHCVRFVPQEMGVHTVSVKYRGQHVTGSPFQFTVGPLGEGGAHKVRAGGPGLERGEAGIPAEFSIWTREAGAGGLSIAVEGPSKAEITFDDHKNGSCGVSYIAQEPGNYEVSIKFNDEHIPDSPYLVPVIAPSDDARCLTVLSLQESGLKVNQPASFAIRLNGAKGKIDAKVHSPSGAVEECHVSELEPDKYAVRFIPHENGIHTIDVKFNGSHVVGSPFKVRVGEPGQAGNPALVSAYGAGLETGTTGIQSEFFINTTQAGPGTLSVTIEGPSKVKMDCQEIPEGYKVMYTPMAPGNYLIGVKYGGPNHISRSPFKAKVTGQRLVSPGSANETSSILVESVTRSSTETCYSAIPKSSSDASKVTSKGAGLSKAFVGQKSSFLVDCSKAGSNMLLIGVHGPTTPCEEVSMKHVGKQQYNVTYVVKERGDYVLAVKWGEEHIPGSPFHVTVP
UniProt Q9QUK9: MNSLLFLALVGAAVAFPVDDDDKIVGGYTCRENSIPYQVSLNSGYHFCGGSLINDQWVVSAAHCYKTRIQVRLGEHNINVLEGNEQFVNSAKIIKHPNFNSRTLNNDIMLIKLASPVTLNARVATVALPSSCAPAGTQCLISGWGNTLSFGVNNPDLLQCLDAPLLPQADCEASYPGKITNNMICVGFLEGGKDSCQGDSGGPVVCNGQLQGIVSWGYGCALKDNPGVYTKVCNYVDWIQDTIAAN
UniProt Q9WTI7: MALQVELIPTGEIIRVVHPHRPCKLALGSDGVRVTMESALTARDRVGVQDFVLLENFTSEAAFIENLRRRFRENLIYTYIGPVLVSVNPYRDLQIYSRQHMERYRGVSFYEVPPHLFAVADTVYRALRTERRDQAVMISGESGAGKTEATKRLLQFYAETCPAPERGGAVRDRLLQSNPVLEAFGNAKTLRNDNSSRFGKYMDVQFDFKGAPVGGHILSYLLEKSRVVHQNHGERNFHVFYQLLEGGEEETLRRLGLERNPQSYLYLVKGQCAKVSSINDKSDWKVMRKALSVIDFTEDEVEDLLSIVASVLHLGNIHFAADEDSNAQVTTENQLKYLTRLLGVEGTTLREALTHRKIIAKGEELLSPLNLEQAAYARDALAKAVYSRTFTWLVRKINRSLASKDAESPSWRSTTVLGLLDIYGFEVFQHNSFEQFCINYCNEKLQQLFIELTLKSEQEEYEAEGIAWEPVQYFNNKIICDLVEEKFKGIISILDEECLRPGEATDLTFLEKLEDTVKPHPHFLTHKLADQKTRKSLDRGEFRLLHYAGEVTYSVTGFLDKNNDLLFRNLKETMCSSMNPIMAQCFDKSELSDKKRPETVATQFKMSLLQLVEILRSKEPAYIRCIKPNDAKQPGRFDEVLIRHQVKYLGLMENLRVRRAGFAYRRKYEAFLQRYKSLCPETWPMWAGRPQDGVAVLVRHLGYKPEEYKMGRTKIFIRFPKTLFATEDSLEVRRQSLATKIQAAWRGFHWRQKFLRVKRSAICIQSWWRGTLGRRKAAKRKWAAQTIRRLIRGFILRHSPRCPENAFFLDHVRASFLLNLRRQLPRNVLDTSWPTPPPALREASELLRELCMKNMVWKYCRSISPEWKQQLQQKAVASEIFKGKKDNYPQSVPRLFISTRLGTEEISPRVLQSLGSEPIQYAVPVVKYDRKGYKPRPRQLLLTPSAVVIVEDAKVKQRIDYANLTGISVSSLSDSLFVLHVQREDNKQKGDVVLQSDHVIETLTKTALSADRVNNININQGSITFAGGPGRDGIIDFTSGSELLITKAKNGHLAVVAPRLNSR
UniProt Q7TPR4: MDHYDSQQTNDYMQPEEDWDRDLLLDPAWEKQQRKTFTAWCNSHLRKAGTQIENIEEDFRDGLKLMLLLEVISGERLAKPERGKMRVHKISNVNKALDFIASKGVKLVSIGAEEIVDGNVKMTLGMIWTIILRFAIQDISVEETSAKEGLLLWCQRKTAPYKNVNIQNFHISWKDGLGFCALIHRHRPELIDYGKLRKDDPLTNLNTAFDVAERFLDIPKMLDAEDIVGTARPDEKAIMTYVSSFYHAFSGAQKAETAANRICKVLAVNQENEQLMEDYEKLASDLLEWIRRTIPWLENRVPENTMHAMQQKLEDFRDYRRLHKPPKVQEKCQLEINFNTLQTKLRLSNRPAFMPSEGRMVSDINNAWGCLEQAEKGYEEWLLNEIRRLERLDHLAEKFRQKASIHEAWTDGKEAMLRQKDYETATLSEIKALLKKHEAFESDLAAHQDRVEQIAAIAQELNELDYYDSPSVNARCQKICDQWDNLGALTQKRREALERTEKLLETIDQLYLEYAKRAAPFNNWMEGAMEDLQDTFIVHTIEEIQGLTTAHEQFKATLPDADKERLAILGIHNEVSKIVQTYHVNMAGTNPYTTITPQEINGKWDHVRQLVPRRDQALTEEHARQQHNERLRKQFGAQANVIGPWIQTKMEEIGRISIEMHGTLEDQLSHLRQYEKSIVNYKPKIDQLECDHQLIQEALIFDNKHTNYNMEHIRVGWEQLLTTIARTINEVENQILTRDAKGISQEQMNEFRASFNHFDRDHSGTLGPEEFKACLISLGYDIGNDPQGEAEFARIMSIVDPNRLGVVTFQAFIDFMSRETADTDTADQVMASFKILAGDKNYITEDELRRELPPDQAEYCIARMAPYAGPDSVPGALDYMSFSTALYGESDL

No constants are given. Whether binding was seen depends on the method and setting. In cells and extracts the contact can be indirect. A yes stands for co-enrichment or nearness to the bait. Other partners may have been found.

For assay [1], the target named is Spinophilin (mouse (endogenous in pancreas and isolated islets)) (UniProt Q6R891). Kind of assay: affinity purification with mass spectrometry; spinophilin immunoprecipitated from pancreas of WT chow-fed, WT high-fat diet-fed and Spino^-/- high-fat diet-fed male mice; on-bead digestion, TMT10plex; hits filtered by WT/KO log2 fold-enrichment of 0.5 and two unique peptides, listed hits increased in HFF vs. lean.

For assay [2] the target is unchanged. Kind of assay: affinity purification with mass spectrometry; spinophilin immunoprecipitated from islets isolated from three WT and one Spino^-/- mice; label-free, spectral counting.
Assay [3] has the same target. Briefly: affinity purification with mass spectrometry; spinophilin immunoprecipitated with goat or rabbit anti-spinophilin antibody and Protein G magnetic beads from RIPA pancreas homogenate of a single 6-wk-old WT and Lepr^db/db mouse; SDS-PAGE, in-gel tryptic digestion, Q-Exactive, spectral counts.

“60S acidic ribosomal protein P2 (from UniProt P99027 1-115)”: the binding entry in assay [1] is reported as “binds”.

“60S ribosomal protein L22-like 1 (from UniProt Q9D7S7 1-122)”: the binding result in assay [1] is on record as “binds”. On the same count and under the same terms, the value for “ADP-ribosylation factor GTPase-activating protein 3 (from UniProt Q9D8S3 1-523)” was “binds”; that for Anionic trypsin-2 (from UniProt P07146) was “binds”. Take Anxa2 (from UniProt P07356 1-339): the binding entry in assay [2] is recorded as “binds”. Consider “Capping protein (Actin filament) muscle Z-line, β, isoform CRA_a (from UniProt P47757 1-277)”, for which, in assay [1], the binding result is on record as “binds”. Still for that read-out and setting: the same measure for “Carboxypeptidase A2 (from UniProt Q504N0)”: “binds”; for “Casein kinase II subunit β (from UniProt P67871 1-215)”: “binds”. On to Cfl1 (from UniProt P18760 1-166), for which the binding result in assay [2] was “binds”. For “Chymotrypsinogen B (from UniProt Q9CR35 19-263)”, the binding entry in assay [1] is “binds”.

Turning to Col1a2 (from UniProt Q01149 86-1125), the binding result in assay [2] is “binds”.

In the case of Colipase (from UniProt Q9CQC2), in assay [1], the binding result is “binds”. On the same count and under the same terms, the value for “Collagen α-1 (VI) chain (from UniProt Q04857 20-1025)” was “binds”. On the same count and under the same terms, the value for “Deleted in malignant brain tumors 1 protein (from UniProt Q60997 20-2085)” was “binds”.

As for EG433182 (from UniProt Q5FW97 1-434), in assay [2], the binding result is “binds”.

In the case of “F-actin-capping protein subunit α-2 (from UniProt P47754 1-286)”, in assay [1], the binding result is given as “binds”.

With Flnb (from UniProt Q80X90 1-2602), the binding entry in assay [2] is given as “binds”.

Turning to Gelsolin (from UniProt P13020 26-780), the binding entry in assay [1] was “binds”. Regarding H1-4 (from UniProt P43274 1-219), the binding entry in assay [2] is recorded as “binds”. Take Hnrnpa2b1 (from UniProt O88569 1-353): in assay [2], the binding result is “binds”. On to Hnrnpk (from UniProt P61979 1-463), for which the binding entry in assay [2] is “binds”. Regarding Hnrnpu (from UniProt Q8VEK3 1-800), the binding result in assay [2] is given as “binds”. For “KH domain-containing, RNA-binding, signal transduction-associated protein 1 (from UniProt Q60749 1-443)”, in assay [1], the binding entry is on record as “binds”.

For the substance MCG15083 (from UniProt Q9QUK9), the binding entry in assay [1] was “binds”. “Myosin phosphatase Rho-interacting protein (from UniProt P97434 1-1024)”: in assay [1], the binding entry is listed as “binds”. Regarding Myosin-14 (from UniProt Q6URW6 1-2000), the binding result in assay [1] is “binds”. Turning to Neurabin-1 (from UniProt H3BJD6 1-1292), in assay [3], the binding result is given as “binds”. For the substance Rpl14 (from UniProt Q9CR57 1-217), in assay [2], the binding entry is given as “binds”. Take “Spectrin α chain, nonerythrocytic 1 (from UniProt P16546 1-2472)”: in assay [1], the binding entry is “binds”. The same measure, in the same setting: the value for “Spectrin β chain, nonerythrocytic 1 (from UniProt Q62261 1-2363)” was “binds”. Same read-out and setting: the value for Talin-1 (from UniProt P26039 1-2541) was “binds”.

Take Tns1 (from UniProt E9Q0S6 1-1888): in assay [2], the binding result is on record as “binds”.

Take “Tropomyosin α-1 chain (from UniProt P58771 1-284)”: the binding entry in assay [1] is “binds”. Still for that read-out and setting: the value for “Tropomyosin α-3 chain (from UniProt P21107 1-285)” was “binds”. On the same count and under the same terms, the same measure for “Tropomyosin β chain (from UniProt P58774 1-284)”: “binds”; for “Unconventional myosin-XVIIIa (from UniProt Q9JMH9 1-2050)”: “binds”; for “Unconventional myosin-lc (from UniProt Q9WTI7 1-1063)”: “binds”. As for “protein disulfide isomerase (PDI) (from UniProt P09103 20-509)”, the binding result in assay [3] and in assay [2] was “binds” each time. Consider “α-Actinin 1a (from UniProt Q7TPR4 1-892)”, for which the binding entry in assay [1] and in assay [2] was “binds” each time.

Consider α-Actinin-4 (from UniProt P57780 1-912), for which the binding result in assay [1] was “binds”.
